Assay results published in publication PMC10269600.

Molecular target: T1, IRF7-Flag (UniProt Q92985)
T1 sequence: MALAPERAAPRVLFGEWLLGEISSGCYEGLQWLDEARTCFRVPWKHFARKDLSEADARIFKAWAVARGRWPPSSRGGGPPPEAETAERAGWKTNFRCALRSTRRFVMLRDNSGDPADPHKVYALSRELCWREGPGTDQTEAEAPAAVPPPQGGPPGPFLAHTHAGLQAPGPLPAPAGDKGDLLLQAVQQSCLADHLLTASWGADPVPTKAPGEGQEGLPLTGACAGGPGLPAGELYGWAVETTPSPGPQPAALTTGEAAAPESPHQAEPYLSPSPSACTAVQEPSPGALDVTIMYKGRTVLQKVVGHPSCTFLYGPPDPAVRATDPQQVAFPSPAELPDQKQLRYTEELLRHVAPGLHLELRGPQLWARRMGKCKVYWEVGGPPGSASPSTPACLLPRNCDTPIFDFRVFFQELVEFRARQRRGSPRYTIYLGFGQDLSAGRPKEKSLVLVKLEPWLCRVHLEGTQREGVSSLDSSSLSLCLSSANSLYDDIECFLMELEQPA
Experiment: co-IP; HEK293T cotransfected with the tagged plasmids; lysate precipitated with anti-Flag beads (6 h, 4°C), washed six times with PBS, eluted with glycine pH 2.4; immunoblot for the partner's tag

Substance	binding
EV-D68 VP3_(Δ41–50)-Myc (from UniProt Q68T42)	binds
EV-D68 VP3_(Δ61–70)-Myc (from UniProt Q68T42)	binds

Results are given in words; binding and its absence hold for the method and conditions named. In cells and extracts the contact can be indirect. Binding can be weak; no strength is given. Where a sequence is shown, tags or fusion partners need not be part of it.
